No constants are given. Whether binding was seen depends on the method and setting. Some binding calls cover weakened binding; strength is not graded here.
Key:
[1] = molecular target: CNOT1 (human) (UniProt A5YKK6); assay: co-purification (affinity chromatography); four full-length proteins co-produced in baculovirus-infected Sf21 cells; heterotetrameric subcomplex purified by affinity chromatography; tagged subunit not stated
[2] = molecular target: CNOT7/CAF1 (human) (UniProt Q9UIV1); assay: co-purification (chromatographic separation); heterodimeric subcomplexes produced in and purified from BL21 (DE3) Star E. coli

Protein sequences, listed by entry. Tags and fused reporters are not part of them.
UniProt A5YKK6: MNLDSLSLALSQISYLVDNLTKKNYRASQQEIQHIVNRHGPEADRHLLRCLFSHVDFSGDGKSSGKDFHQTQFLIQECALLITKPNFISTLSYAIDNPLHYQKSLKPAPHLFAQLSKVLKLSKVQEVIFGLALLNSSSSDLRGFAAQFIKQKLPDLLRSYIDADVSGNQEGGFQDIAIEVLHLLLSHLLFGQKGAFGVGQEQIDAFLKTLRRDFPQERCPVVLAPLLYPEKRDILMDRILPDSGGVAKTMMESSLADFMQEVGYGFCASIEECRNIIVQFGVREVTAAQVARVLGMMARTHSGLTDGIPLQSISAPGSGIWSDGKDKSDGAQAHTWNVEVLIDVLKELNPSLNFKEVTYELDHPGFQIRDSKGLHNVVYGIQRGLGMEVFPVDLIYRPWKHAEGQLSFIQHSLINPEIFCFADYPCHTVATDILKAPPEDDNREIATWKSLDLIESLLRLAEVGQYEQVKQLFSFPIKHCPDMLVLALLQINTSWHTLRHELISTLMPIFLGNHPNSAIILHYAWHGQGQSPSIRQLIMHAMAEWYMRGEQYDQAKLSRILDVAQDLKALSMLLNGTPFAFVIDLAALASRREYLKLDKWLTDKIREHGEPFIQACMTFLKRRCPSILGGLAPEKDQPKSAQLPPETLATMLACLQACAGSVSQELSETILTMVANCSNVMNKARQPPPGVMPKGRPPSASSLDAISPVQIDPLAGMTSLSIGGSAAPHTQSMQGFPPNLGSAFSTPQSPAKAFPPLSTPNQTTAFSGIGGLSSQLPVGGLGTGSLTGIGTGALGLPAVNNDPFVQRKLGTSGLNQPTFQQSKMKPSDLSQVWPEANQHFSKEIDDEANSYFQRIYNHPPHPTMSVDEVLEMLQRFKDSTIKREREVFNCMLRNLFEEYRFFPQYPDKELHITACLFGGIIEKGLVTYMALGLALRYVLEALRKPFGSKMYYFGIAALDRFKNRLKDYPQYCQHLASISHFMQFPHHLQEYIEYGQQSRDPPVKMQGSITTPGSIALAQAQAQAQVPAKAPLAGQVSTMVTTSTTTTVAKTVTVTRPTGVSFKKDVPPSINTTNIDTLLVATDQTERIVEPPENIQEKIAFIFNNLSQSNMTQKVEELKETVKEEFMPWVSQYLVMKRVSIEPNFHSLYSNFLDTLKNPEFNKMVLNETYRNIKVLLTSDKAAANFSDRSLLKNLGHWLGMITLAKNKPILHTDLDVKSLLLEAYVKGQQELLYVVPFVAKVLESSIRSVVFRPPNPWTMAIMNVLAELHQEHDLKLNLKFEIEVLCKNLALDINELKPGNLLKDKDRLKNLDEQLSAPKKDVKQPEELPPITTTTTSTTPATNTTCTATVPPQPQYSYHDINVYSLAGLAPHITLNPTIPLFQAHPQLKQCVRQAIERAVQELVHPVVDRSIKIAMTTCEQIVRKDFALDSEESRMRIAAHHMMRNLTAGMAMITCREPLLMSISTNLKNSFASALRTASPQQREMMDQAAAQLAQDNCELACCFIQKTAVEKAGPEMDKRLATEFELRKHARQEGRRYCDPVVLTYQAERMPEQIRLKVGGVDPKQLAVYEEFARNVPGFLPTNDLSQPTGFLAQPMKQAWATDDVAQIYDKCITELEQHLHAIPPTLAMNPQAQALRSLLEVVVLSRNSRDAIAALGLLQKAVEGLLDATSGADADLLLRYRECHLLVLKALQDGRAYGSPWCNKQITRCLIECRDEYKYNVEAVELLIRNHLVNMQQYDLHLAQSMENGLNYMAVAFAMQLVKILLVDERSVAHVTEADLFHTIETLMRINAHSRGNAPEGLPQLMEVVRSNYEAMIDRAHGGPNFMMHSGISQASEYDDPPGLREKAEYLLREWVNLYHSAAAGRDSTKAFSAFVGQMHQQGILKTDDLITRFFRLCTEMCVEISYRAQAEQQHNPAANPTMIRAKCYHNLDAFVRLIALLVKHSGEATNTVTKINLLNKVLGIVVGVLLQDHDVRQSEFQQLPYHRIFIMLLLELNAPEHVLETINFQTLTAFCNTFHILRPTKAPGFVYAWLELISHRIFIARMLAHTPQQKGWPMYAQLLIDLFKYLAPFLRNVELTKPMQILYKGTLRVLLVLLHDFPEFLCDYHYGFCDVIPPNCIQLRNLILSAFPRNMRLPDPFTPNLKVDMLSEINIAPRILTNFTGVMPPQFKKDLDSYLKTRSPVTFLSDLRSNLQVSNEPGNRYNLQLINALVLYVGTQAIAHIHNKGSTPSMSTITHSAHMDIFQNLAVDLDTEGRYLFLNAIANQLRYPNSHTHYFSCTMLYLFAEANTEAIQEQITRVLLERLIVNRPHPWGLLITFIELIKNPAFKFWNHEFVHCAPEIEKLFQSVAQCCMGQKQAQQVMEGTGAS
UniProt Q9UIV1: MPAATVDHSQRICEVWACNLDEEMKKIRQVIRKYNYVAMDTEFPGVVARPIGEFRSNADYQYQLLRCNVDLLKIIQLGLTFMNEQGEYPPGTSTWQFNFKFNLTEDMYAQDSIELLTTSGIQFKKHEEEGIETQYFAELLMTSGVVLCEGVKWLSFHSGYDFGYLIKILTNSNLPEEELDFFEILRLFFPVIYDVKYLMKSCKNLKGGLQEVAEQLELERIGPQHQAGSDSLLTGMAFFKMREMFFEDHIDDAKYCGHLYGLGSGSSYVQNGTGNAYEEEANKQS
UniProt Q9NZN8: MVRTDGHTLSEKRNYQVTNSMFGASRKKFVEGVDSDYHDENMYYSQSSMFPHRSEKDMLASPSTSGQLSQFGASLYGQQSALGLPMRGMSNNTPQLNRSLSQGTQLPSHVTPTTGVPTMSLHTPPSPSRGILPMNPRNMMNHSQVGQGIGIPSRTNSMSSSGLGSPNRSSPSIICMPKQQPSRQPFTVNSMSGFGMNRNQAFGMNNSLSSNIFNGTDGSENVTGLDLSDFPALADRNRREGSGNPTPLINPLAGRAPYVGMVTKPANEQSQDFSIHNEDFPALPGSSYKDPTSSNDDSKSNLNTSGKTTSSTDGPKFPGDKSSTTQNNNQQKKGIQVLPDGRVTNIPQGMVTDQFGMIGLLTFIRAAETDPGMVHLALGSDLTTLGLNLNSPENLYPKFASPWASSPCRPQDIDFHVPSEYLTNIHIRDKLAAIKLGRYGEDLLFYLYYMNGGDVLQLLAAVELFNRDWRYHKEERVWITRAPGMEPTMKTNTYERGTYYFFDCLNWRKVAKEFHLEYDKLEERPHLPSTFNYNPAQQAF
UniProt O75175: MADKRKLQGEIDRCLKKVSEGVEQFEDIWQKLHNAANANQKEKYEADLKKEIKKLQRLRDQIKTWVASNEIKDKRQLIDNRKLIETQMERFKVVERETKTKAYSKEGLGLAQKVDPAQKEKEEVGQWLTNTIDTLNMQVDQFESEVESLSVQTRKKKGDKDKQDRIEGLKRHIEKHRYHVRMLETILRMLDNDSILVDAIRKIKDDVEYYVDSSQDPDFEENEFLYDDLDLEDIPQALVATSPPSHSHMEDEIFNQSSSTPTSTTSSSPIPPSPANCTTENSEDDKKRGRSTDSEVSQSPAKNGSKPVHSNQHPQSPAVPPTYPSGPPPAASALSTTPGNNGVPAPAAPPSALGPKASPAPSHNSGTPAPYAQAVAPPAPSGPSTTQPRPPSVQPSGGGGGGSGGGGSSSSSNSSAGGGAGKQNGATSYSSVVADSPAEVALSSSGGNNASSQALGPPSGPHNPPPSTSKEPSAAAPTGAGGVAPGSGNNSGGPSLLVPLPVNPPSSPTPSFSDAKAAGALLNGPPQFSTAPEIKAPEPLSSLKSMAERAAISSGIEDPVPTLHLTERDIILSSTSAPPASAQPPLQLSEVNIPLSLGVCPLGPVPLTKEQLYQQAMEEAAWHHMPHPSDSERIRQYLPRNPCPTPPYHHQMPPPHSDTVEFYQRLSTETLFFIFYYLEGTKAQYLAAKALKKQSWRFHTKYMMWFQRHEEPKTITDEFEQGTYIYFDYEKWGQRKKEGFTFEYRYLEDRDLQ
UniProt Q9ULM6: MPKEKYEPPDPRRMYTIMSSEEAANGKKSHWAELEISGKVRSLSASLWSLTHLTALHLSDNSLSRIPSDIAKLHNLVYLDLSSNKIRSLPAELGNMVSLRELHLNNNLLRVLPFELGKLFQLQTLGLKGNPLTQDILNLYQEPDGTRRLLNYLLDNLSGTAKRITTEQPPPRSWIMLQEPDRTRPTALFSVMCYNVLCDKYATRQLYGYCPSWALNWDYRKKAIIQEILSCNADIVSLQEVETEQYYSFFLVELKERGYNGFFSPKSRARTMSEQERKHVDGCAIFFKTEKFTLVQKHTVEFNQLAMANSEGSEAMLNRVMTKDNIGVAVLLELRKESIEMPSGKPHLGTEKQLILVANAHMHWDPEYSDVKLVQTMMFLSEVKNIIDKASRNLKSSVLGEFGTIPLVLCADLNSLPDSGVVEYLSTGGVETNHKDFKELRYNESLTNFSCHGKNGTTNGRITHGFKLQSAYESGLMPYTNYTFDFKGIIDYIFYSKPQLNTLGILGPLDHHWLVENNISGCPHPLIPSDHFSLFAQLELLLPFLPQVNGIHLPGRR
UniProt Q92600: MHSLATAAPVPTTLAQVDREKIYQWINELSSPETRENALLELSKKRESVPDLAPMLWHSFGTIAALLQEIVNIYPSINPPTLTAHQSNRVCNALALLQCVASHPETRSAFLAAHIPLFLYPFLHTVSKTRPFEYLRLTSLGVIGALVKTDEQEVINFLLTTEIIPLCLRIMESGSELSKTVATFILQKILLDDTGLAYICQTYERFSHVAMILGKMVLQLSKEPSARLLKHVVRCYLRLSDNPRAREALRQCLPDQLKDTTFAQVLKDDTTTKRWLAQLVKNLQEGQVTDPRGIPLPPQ

Substance | binding [1] | binding [2]
CNOT2 (from UniProt Q9NZN8 1-540) | binds | –
CNOT3 (from UniProt O75175 1-753) | binds | –
CNOT6/CCR4a (from UniProt Q9ULM6 1-557) (enzyme) | – | binds
CNOT9/CAF40 (from UniProt Q92600 1-299) | binds | –

Source: publication PMC11102861
